These are yes or no findings as the source states them, for the method shown. For some of these results: In cells and extracts the contact can be indirect. Some results given as binding are weak or reduced against the parent protein; the word gives no strength. Tags and fused reporters may be left off the sequences shown. One block for each binder: values may come before it.
Assays:
[1] = biological target: T1, His6-tagged full-length C. elegans separase (C. elegans) (UniProt G5ED39); assay: SEC; full-length separase co-expressed and purified with securin from Sf9 cells; fractions analysed by SDS-PAGE; Superdex 200 16/60 or Superose 6 10/300 in Tris or phosphate buffer; both purified
T1 sequence: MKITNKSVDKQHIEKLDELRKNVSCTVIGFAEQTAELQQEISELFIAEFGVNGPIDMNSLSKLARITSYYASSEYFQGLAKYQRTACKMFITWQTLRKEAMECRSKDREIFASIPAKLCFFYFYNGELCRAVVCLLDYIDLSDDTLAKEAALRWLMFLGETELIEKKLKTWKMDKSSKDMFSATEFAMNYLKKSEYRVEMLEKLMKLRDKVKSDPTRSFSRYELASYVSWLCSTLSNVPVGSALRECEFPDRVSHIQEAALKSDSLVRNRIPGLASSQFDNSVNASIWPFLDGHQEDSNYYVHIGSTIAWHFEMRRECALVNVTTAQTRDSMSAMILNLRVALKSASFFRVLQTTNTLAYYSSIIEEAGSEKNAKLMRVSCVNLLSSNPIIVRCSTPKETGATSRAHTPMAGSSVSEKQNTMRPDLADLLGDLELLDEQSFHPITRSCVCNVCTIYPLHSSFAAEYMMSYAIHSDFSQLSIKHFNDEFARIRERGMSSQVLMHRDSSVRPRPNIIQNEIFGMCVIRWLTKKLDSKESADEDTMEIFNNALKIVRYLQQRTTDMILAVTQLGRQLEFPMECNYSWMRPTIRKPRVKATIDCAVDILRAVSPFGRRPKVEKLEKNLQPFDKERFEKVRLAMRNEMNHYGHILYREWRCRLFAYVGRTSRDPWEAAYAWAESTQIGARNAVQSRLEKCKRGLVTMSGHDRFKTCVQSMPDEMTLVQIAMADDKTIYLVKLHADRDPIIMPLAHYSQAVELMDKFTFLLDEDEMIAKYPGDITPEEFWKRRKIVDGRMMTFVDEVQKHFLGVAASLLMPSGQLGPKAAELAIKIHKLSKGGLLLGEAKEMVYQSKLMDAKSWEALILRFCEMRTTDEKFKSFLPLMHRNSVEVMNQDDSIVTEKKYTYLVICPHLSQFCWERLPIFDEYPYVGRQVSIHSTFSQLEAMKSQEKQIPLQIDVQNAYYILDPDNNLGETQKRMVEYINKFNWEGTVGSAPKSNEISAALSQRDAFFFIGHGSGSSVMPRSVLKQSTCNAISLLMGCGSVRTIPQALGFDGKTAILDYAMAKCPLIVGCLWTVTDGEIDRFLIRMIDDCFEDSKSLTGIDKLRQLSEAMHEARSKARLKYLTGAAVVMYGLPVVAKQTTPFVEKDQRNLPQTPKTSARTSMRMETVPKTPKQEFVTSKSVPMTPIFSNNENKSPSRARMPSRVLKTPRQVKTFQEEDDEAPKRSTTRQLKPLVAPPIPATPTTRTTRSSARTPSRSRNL

[2] = biological target: T2, StrepII-tagged C. elegans separase (aa 1–1140) (C. elegans) (UniProt G5ED39); assay: pull-down; separase 1-1140 and securin or its fragments co-expressed in Sf9 cells for 72 h; soluble lysate incubated with StrepTactin resin 1 h at 4°C to bind StrepII-separase, washed four times in PBS; SDS-PAGE and Western blot
T2 sequence: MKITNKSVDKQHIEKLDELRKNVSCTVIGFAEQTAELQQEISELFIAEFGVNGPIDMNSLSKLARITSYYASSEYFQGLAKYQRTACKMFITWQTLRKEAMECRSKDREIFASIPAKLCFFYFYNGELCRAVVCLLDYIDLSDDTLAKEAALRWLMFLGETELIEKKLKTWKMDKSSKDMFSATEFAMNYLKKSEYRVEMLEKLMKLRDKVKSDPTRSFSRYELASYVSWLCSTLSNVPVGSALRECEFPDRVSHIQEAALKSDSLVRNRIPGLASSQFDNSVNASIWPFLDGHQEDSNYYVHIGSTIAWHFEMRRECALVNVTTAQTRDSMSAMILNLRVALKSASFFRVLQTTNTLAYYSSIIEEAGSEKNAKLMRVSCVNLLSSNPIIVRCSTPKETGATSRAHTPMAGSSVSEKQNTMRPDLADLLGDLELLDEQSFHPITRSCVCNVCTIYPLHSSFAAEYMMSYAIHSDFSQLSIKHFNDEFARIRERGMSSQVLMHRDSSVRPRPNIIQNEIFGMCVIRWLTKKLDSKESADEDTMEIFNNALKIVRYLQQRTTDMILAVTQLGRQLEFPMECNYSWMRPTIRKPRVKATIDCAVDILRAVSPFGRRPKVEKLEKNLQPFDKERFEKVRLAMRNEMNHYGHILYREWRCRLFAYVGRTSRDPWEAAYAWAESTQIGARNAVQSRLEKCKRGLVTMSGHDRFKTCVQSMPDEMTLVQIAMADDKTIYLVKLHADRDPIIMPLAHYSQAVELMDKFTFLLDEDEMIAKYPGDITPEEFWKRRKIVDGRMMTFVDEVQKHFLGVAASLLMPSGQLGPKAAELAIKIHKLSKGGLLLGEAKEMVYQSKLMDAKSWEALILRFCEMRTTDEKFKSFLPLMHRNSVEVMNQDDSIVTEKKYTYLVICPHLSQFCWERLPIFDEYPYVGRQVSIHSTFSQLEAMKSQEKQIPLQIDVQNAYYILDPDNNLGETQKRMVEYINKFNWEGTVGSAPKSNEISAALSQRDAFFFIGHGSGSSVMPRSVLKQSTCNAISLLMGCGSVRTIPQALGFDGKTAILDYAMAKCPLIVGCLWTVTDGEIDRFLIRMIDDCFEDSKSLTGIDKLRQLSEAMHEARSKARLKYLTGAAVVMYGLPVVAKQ

[3] = biological target: T3, strep II-tagged full-length C. elegans separase (C. elegans) (UniProt G5ED39); assay: negative-stain electron microscopy, single particle reconstruction; purified full-length separase-securin complex on carbon-coated grids, 2% w/v uranyl acetate; map at about 21-24 Å; both purified
T3 sequence: T1 sequence

binding [1]: binds
B1: His6-tagged C. elegans securin (protein, UniProt Q18235 1-244)
chain: MEDLNFEERGSTQIPASLQQHFSAKLGRQNELEKTPSRGGLGLVVNSSKTPGGKSLQSLASACKVPPSTKKNTIPIAFECYEDETDDQIADVATIKKTEKHPCSPIDTANRCETFDSLAADIEDDMLNLEDQDVVLSEDRPYGDVIDPAESEAEALAELGVEEWDSYPPIDPASRIGDDFNYVLRTEDFAEEGDVKLEETRHRTVIADIDEVKMSKAERNELFSMLADDLDSYDLLAEEANLPL

binding [2]: binds | binding [3]: binds
B2: full-length C. elegans securin (co-expressed with StrepII-tagged separase) (natural protein, UniProt Q18235 1-244, looked up)
chain: B1 chain
notes: it may be the same construct as m2; also called securin FL; source: Sf9 insect cells, co-expressed with StrepII-separase; in soluble lysate (pull-down) and purified as complex (StrepTactin, SEC)

binding [2]: binds
B3: C. elegans securin fragment 77–244 (domain or fragment, UniProt Q18235 77-244)
chain: AFECYEDETDDQIADVATIKKTEKHPCSPIDTANRCETFDSLAADIEDDMLNLEDQDVVLSEDRPYGDVIDPAESEAEALAELGVEEWDSYPPIDPASRIGDDFNYVLRTEDFAEEGDVKLEETRHRTVIADIDEVKMSKAERNELFSMLADDLDSYDLLAEEANLPL
